Reference: US20050164186, “Alteration of restriction endonuclease specificity by genetic selection” (published 2005)
Substitutions are numbered along the chain they refer to. Where a protein sequence is shown, tags need not be part of it. For some of these results: For at least one entry, the source does not settle the construct or the ends of the probe. For some of these results: No signal at the amounts used counts as a negative.

Key:
Assay in all cases: enzyme reaction in vitro
[1] = test system: T1, BstYI wild-type (Bacillus stearothermophilus); settings: similar proficiency on all RGATCY sites; 60 C; purified recombinant protein; label: radiolabel; only the site is given
T1 sequence: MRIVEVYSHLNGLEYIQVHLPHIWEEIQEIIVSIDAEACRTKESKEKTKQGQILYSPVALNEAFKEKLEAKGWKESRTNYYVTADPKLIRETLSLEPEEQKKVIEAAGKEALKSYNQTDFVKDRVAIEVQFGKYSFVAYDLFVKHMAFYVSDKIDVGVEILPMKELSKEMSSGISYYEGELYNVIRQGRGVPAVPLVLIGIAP

[2] = test system: T2, BstYI NN1 (K133N/S172N) (Bacillus stearothermophilus); settings: purified recombinant protein, only the site is given
T2 sequence: T1 sequence with K133N, S172N

[3] = test system: T3, BstYI clone 9 R2opal (Trp inserted at low frequency),K49R,K87R,K133N (Bacillus stearothermophilus); settings: preference for AGATCT; 10 mM MgCl2; protein in an extract; only the site is given
T3 sequence: T1 sequence with R2W, K49R, K87R, K133N

[4] = test system: T4, BstYI clone A1c Q28H,S172amber (Gln by suppression),Y176C (Bacillus stearothermophilus); settings: preference for AGATCT; 10 mM MgCl2; protein in an extract; only the site is given
T4 sequence: T1 sequence with Q28H, S172Q, Y176C

Row | Sequence | activity on this sequence [1] | activity on this sequence ([2]; cleavage not detected, 60 C, label: radiolabel) | activity on this sequence ([2]; BglII-like pattern on plasmid, 10 mM MgCl2, 55 C) | activity on this sequence [3] | activity on this sequence [4]
1 | AGATCT (double strand) [AGATCT site, 60 bp substrate] | active | – | – | – | –
2 | AGATCC (double strand) [AGATCC/GGATCT site, 60 bp substrate] | active | – | – | – | –
3 | GGATCC (double strand) [GGATCC site, 60 bp substrate] | active | not active | – | – | –
4 | AGATCT (double strand) [pUCAdenoXba AGATCT (BglII) sites] | – | – | active | active | active
